Reference: the supplement of paper PMC10727501
The list shows a part of the results. Repeats in this data set agree poorly, so a single value says little.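 Researchers measured free-swimming zebrafish larvae's O-bend response probability to dark flashes (naive: first five; training: remaining flashes of four 60-flash blocks; test: later 60-flash block) and OMR turning toward alternating leftward/rightward LED motion. Six treated larvae were compared to sixty 0.1% DMSO controls, with |SSMD|≥2 marking a hit.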

tested on: Danio rerio larvae (5 dpf, TLF); assay: Prob-Train (SSMD vs DMSO vehicle); higher = higher than vehicle (e.g. higher dark-flash O-bend response probability, or better optomotor performance); settings: 10 µM; pre-incubation: 30-90 min

| SMILES | Prob-Train |
| --- | --- |
| C[C@]12C[C@@]3(O)O[C@@H](O1)[C@]1(COC(=O)c4ccccc4)[C@H]3C[C@@]12O[C@@H]1O[C@H](CO)[C@@H](O)[C@H](O)[C@H]1O [Paeoniflorin] | 0.192 |
| COc1ccccc1OCC(O)CO (stereo unspecified) [Guaifenesin] | -0.313 |
| CN1CCC(CNc2ccc3ncc(-c4cccc(OC(F)(F)F)c4)n3n2)CC1 [SGI-1776 free base] | 0.201 |
| O=C(O)c1cccnc1 [Nicotinic Acid] | -0.182 |
| CC(=O)N[C@@H]1[C@H]([C@H](O)[C@H](O)CO)OC(C(=O)O)=C[C@@H]1NC(=N)N [Zanamivir] | 0.465 |
| Cl.c1ccc(C2CN3CCSC3=N2)cc1 (stereo unspecified) [Tetramisole HCl] | 0.205 |
| O=C(Nc1ccc2c(=O)cc(-c3nnn[nH]3)oc2c1)c1ccc(OCCCCc2ccccc2)cc1 [Pranlukast] | 0.717 |
| COc1ccc(-c2coc3cc(O)ccc3c2=O)cc1 [Formononetin] | -0.37 |
| Cc1c(-c2ccc(O)cc2)n(Cc2ccc(OCCN3CCCCCC3)cc2)c2ccc(O)cc12.Cl [Bazedoxifene HCl] | 0.214 |
| CC(C)Cc1ccc(C(C)C(=O)O)cc1.NCCCC[C@H](N)C(=O)O (stereo unspecified) [Ibuprofen Lysine (NeoProfen)] | -0.823 |
| Cc1nc2c([nH]1)-c1ccccc1N(C(=O)c1ccc(NC(=O)c3ccccc3-c3ccccc3)cc1)CC2.Cl [Conivaptan HCl] | 0.0346 |
| CCc1ccc(OCc2ccccc2C(=O)Nc2ccc3nc(C)cc(N)c3c2)cc1.Cl | -0.434 |
| Cc1ccc(C(=O)Nc2ccc(CN3CCN(C)CC3)c(C(F)(F)F)c2)cc1C#Cc1cnc2cccnn12 | -0.212 |
| COc1cccc(C=NCCN=Cc2cccc(OC)c2[O-])c1[O-].[Cl-].[Mn+3] | 0.404 |
| Cc1ccc(S(=O)(=O)NC(=O)NN2CCCCCC2)cc1 [Tolazamide] | 0.093 |
| CN1C[C@@H]2c3ccccc3Oc3ccc(Cl)cc3[C@H]2C1.O=C(O)/C=C\C(=O)O [Asenapine] | -1.46 |

| SMILES | Prob-Train |
| --- | --- |
| C[C@@H]1C[C@H]2[C@@H]3C[C@H](F)C4=CC(=O)C=C[C@]4(C)[C@]3(F)[C@H](O)C[C@]2(C)[C@@]1(O)C(=O)CO [Flumethasone] | -0.505 |
| COc1ccc(CN(CCN(C)C)c2ccccn2)cc1.O=C(O)C=CC(=O)O [Pyrilamine Maleate] | 0.0767 |
| CC(C)(Oc1ccc(CCNC(=O)c2ccc(Cl)cc2)cc1)C(=O)O [Bezafibrate] | 0.0636 |
| COc1cc([C@H]2Oc3cc([C@@H]4Oc5cc(O)cc(O)c5C(=O)[C@@H]4O)ccc3O[C@@H]2CO)ccc1O [Silibinin] | -0.00823 |
| Nc1nc(Cl)nc2c1ncn2[C@H]1C[C@H](O)[C@@H](CO)O1 [Cladribine] | 0.148 |
| Cc1c(Cl)cccc1Nc1ccccc1C(=O)O [Tolfenamic Acid] | -2.19 |
| CC(CNC(=O)c1cccnc1)NC(=O)c1cccnc1 (stereo unspecified) [Nicaraven] | -0.423 |
| Cl.c1ccc2c(CC3=NCCN3)cccc2c1 [Naphazoline HCl] | -0.287 |
| C[C@@]12CCC3=C4CCC(=O)C=C4CC[C@H]3[C@@H]1CC[C@@]2(O)CC#N [Dienogest] | -0.975 |
| O.O.O=c1c(O)c(-c2ccc(O)c(O)c2)oc2cc(O)cc(O)c12 [Quercetin Dihydrate] | -0.242 |
| COc1cc(Nc2c(C#N)cnc3cc(OCCCN4CCN(C)CC4)c(OC)cc23)c(Cl)cc1Cl [Bosutinib (SKI-606)] | 0.214 |
| Cl.N=C(N)NCCCC(N)C(=O)O (stereo in doubt) [L-Arginine HCl] | -0.306 |
| CN1CC[C@H](c2c(O)cc(O)c3c(=O)cc(-c4ccccc4Cl)oc23)[C@H](O)C1.Cl [Flavopiridol HCl] | 0.389 |
| COC(=O)C1=CO[C@@H](O[C@@H]2O[C@H](CO)[C@@H](O)[C@@H](O)[C@H]2O)[C@H]2C(CO)=CC[C@H]12 [Geniposide] | 0.154 |
| Cc1cc(Nc2cc(N3CCN(C)CC3)nc(Sc3ccc(NC(=O)C4CC4)cc3)n2)n[nH]1 [VX-680 (Tozasertib, MK-0457)] | -0.482 |
